Assay results as given in the supplement of paper PMC10849652.
This is one part of the list.

Amino acid sequences for entries named in this document (tags omitted). A change or cut given only in a name is not applied to a line headed by its entry.
UniProt Q9NVA1: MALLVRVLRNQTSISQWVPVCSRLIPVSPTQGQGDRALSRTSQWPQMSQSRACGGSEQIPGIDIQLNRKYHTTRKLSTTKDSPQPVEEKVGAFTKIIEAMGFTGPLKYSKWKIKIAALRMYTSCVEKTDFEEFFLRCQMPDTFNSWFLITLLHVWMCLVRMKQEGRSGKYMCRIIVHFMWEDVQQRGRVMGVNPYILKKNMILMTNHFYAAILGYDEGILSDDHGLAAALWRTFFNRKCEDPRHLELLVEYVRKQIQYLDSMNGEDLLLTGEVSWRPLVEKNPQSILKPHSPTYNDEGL
UniProt Q8TED0: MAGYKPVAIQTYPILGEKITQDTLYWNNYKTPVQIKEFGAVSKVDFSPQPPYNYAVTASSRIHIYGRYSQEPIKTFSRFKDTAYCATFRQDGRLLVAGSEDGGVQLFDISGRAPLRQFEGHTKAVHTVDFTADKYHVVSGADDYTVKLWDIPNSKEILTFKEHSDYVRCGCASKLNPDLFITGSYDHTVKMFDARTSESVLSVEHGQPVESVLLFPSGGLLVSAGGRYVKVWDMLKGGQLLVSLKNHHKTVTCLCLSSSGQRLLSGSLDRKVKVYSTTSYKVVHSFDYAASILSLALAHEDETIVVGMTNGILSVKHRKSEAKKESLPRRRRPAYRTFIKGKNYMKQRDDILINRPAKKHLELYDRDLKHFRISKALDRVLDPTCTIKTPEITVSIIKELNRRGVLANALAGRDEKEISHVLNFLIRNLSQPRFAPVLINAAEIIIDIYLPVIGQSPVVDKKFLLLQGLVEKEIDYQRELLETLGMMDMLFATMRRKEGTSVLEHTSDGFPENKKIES
UniProt Q9BV40: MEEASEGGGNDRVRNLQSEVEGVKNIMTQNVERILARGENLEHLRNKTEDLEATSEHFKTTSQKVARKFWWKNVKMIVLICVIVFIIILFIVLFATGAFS
UniProt P50552: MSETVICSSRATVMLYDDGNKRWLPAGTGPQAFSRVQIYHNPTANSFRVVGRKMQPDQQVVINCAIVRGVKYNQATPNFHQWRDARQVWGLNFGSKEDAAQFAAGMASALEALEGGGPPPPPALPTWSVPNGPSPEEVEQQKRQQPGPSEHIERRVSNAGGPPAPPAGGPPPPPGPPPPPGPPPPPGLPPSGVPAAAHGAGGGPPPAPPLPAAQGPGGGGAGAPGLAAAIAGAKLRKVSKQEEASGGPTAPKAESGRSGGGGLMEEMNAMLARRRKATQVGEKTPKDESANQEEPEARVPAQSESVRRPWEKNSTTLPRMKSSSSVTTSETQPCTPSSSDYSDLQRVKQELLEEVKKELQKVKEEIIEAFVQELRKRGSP
UniProt Q9BZL1: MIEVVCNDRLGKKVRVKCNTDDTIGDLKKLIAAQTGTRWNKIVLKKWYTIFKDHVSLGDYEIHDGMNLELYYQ
UniProt Q70J99: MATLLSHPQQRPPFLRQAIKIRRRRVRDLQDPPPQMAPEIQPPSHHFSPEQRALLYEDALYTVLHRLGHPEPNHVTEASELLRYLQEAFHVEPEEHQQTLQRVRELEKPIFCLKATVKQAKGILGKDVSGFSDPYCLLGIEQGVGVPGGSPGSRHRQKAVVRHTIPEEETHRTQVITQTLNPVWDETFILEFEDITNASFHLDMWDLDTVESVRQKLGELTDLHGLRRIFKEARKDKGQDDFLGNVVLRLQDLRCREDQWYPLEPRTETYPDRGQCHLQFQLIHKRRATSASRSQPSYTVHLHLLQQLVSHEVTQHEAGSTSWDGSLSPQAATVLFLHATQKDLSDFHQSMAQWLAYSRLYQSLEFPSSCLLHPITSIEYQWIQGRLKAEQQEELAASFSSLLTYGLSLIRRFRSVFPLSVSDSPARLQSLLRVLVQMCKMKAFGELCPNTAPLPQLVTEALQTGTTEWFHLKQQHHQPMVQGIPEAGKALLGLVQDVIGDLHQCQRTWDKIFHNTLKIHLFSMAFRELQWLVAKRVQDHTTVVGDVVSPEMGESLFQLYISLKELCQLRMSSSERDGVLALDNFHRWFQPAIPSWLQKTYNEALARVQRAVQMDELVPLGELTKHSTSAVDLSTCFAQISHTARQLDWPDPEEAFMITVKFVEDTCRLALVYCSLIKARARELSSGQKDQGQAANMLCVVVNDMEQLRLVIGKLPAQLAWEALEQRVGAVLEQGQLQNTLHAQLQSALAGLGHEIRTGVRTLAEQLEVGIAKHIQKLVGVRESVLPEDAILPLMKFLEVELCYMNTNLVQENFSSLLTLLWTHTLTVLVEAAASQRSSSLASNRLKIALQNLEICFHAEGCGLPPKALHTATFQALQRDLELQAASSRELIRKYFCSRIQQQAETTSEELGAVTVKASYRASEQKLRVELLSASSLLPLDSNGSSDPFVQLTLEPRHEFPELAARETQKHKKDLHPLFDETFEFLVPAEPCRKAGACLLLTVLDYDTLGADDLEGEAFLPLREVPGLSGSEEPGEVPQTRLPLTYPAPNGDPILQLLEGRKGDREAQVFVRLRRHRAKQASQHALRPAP
UniProt Q9P2Y5: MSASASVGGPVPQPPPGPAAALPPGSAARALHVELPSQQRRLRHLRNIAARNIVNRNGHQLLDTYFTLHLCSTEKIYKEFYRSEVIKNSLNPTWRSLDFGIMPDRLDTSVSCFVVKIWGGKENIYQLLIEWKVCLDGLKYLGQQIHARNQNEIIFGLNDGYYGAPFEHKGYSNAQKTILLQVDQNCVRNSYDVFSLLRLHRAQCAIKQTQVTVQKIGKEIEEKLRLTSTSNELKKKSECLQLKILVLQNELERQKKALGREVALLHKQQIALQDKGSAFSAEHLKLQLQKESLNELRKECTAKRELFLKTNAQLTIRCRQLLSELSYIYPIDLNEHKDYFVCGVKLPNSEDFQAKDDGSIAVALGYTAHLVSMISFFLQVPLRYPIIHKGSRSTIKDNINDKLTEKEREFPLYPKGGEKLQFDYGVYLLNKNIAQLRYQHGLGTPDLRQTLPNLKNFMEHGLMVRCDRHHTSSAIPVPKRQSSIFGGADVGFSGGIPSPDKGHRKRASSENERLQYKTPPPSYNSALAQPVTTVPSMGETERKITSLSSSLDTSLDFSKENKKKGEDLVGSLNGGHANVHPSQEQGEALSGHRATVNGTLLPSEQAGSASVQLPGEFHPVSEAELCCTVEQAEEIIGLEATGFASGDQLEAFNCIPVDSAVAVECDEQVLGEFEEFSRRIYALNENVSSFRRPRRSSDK
UniProt O94763, whole entry, looked up: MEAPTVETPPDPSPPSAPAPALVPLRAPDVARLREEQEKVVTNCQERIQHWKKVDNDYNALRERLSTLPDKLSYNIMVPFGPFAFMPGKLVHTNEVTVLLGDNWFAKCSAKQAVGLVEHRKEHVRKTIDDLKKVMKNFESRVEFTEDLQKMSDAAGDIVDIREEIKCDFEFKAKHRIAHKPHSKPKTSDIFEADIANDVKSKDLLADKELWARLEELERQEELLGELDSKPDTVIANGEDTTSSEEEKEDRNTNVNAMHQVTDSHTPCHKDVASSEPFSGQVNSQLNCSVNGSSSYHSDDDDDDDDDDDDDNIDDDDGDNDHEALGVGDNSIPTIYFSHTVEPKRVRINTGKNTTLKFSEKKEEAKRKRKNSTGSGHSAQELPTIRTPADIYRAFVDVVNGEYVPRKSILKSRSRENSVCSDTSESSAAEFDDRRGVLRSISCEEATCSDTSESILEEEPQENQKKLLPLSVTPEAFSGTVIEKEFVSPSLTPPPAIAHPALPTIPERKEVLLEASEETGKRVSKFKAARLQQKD
UniProt O14949: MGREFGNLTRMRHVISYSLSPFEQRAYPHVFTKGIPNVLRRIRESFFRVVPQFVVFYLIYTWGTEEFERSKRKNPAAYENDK
UniProt Q92575: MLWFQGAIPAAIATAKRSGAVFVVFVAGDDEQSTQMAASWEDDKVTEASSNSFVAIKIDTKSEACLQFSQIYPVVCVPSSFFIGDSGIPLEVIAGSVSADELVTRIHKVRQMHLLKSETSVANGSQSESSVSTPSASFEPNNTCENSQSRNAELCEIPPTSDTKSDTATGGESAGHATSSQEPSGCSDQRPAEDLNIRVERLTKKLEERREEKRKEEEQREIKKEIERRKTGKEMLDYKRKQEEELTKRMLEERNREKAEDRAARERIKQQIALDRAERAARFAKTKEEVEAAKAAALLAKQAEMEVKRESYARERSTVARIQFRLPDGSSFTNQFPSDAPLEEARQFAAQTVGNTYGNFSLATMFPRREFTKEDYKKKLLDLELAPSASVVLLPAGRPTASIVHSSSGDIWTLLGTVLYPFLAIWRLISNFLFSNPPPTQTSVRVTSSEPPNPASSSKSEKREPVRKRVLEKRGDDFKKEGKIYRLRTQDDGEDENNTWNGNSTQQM
UniProt P63027, whole entry, looked up: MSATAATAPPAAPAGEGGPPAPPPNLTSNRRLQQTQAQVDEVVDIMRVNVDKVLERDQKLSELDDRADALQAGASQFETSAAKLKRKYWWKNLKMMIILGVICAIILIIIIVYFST
UniProt P10746: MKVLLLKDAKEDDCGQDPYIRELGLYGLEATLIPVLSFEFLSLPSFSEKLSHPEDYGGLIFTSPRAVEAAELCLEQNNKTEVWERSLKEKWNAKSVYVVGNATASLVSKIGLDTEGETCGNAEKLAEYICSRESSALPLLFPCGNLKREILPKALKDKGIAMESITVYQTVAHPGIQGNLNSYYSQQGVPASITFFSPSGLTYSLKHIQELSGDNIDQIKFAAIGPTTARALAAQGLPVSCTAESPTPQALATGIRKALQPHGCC
UniProt Q9HAU5: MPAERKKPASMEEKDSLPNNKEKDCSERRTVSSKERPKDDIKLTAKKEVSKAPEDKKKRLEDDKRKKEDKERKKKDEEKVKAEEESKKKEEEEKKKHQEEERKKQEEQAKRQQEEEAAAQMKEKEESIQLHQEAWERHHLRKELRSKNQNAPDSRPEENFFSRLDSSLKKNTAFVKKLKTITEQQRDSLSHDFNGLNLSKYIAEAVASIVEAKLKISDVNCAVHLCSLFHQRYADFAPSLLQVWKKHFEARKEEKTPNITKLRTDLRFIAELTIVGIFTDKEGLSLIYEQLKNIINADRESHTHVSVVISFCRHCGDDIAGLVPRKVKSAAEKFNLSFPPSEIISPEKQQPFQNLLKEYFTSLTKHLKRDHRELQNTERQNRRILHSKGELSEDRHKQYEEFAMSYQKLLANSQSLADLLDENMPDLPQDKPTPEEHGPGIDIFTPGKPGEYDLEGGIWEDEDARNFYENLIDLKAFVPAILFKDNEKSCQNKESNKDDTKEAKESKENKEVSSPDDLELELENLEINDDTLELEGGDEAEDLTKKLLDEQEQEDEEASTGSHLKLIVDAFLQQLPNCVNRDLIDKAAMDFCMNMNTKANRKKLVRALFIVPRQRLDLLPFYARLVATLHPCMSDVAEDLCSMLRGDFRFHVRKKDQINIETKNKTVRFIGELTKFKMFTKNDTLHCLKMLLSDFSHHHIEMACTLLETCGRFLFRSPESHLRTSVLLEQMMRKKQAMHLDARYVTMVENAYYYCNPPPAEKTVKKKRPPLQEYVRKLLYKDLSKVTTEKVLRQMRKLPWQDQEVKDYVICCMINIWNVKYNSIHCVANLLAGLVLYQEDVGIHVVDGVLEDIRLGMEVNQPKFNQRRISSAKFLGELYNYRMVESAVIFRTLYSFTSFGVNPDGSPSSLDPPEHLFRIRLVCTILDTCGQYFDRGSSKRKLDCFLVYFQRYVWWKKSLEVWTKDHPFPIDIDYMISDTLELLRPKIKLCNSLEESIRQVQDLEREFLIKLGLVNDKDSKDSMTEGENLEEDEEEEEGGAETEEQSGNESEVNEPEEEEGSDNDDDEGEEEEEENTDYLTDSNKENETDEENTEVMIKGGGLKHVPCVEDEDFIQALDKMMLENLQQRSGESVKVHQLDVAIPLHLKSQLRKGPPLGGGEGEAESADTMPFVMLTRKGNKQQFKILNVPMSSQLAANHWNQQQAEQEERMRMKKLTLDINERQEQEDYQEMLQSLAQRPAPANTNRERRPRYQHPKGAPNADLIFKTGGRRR
UniProt Q96S82: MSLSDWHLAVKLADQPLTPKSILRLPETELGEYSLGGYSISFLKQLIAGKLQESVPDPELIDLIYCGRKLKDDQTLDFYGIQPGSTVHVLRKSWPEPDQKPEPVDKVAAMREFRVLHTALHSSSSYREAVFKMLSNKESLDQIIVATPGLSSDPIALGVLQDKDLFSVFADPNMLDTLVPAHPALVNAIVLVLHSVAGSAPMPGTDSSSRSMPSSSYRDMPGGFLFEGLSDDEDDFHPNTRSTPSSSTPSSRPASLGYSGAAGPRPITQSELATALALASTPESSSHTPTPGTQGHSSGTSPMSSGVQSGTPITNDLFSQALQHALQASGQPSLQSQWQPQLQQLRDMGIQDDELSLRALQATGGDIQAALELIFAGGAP
UniProt P47985: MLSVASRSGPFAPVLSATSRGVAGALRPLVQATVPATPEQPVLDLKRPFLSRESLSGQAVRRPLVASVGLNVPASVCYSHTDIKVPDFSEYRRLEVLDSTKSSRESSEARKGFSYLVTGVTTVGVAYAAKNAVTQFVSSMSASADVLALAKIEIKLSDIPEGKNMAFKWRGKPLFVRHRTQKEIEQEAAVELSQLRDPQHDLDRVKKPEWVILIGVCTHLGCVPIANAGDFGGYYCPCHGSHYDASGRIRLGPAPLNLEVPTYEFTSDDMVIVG

Compound: C#Cc1cccc(Nc2ncnc3cc(OCCOC)c(OCCOC)cc23)c1 [erlotinib]
Assay: log2 fold change, soluble protein after heating vs DMSO (PISA); higher = thermal stabilisation; K562 cells, 10 uM, 30 min; active = over 0.2 and 3.5 SD of the protein, either way, in both replicates (recomputed)
Procedure, shortened: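 Soluble protein was defined as the supernatant after 21,000xg for 90 min. It came from K562 cells at 2×10^6 cells/mL given 10 μM compound for 30 min, heated in aliquots for 3 min across 48°C-58°C, pooled, and extracted in PBS with 0.5% NP-40 at 4°C, and was quantified by TMTpro 16plex LC-MS/MS with equalised channel sums. Thermal stability against control samples, from duplicates, is reported as log2 fold change.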

log2 fold change, inactive:
UBQLN2 (UniProt Q9UHD9) -0.002
UQCC1 (UniProt Q9NVA1) -0.016
USP1 (UniProt O94782) -0.053
UCK1 (UniProt Q9HA47) 0.004
UCHL3 (UniProt P15374) -0.062
VAC14 (UniProt Q08AM6) -0.001
UTP15 (UniProt Q8TED0) -0.195
VAMP8 (UniProt Q9BV40) -0.004
VASP (UniProt P50552) 0.164
URGCP (UniProt Q8TCY9) 0.076
UBL5 (UniProt Q9BZL1) -0.069
UIMC1 (UniProt Q96RL1) -0.07
USP47 (UniProt Q96K76) 0.002
UNC13D isoform 3 (UniProt Q70J99) 0.174
UNC45A (UniProt Q9H3U1) 0.064
UVRAG (UniProt Q9P2Y5) 0.049
URI1 isoform 4 (UniProt O94763) -0.118
VAMP4 (UniProt O75379) 0.025
UQCRQ (UniProt O14949) -0.002
UBR7 (UniProt Q8N806) -0.048
UPF1 (UniProt Q92900) -0.003
UFC1 (UniProt Q9Y3C8) 0.033
UBE3C (UniProt Q15386) 0.007
UBXN4 (UniProt Q92575) 0.023
VAMP2 (UniProt P63027) -0.042
UCK2 (UniProt Q9BZX2) 0.011
VAPA (UniProt Q9P0L0) -0.034
UGGT2 (UniProt Q9NYU1) -0.017
UROS (UniProt P10746) -0.011
USP16 (UniProt Q9Y5T5) 0.014
UPF2 (UniProt Q9HAU5) 0.112
USE1 (UniProt Q9NZ43) 0.018
UBL7 (UniProt Q96S82) 0.015
UROD (UniProt P06132) 0.042
UQCRFS1 (UniProt P47985) -0.005
URI1 (UniProt O94763) -0.007
USP10 isoform 2 (UniProt Q14694) -0.038
USP30 (UniProt Q70CQ3) -0.147
UBFD1 (UniProt O14562) -0.025

Two records drawn at random from those above, as already listed:
log2 fold change, inactive:
UBXN4 (UniProt Q92575) 0.023
URI1 isoform 4 (UniProt O94763) -0.118
